# Source: the supplement of paper PMC8728848
# The list shows a part of the results.
# B1: Gal 10 (Homo sapiens), Q05315 (protein)
# chain: MSLLPVPYTEAASLSTGSTVTIKGRPLVCFLNEPYLQVDFHTEMKEESDIVFHFQVCFGRRVVMNSREYGAWKQQVESKNMPFQDGQEFELSISVLPDKYQVMVNGQSSYTFDHRIKPEAVKMVQVWRDISLTKFNVSYLKR
# Columns and labels:
# Test in all cases: glycan array binding signal (z-score within array); higher = stronger binding
# Conditions in all cases: glycan notation: IUPAC condensed, linker removed
# [1] = target: Neu5Ac(a2-3)Gal(b1-3)GlcNAc(b1-3)GalNAc
# Summary of the method: (§1)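 Glycan array data came from 3228 arrays in the Consortium for Functional Glycomics database, and only arrays with an available protein sequence were kept. Glycan names were put into IUPAC-condensed notation, and columns mapping to the same glycan were averaged. The binding signal is a within-array Z-score, averaged across arrays of one protein sequence run at different concentrations or buffers and across linkers. A negative Z-score can be read as non-binding.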
# [2] = target: Neu5Ac(a2-3)Gal(b1-3)GlcNAc(b1-4)Gal(b1-4)Glc
# Summary of the method: as §1
# [3] = target: Neu5Ac(a2-3)Gal(b1-3)GlcNAc(b1-6)GalNAc
# Summary of the method: as §1
# [4] = target: Neu5Ac(a2-3)Gal(b1-3)GlcNAc6S
# Summary of the method: as §1
# [5] = target: Neu5Ac(a2-3)Gal(b1-3)[Fuc(a1-4)]GlcNAc
# Summary of the method: as §1
# [6] = target: Neu5Ac(a2-3)Gal(b1-3)[Fuc(a1-4)]GlcNAc(b1-3)Gal(b1-3)[Fuc(a1-4)]GlcNAc
# Summary of the method: as §1
# [7] = target: Neu5Ac(a2-3)Gal(b1-3)[Fuc(a1-4)]GlcNAc(b1-3)Gal(b1-4)[Fuc(a1-3)]GlcNAc
# Summary of the method: as §1
# [8] = target: Neu5Ac(a2-3)Gal(b1-3)[GlcNAc(b1-6)]GalNAc
# Summary of the method: as §1
# [9] = target: Neu5Ac(a2-3)Gal(b1-3)[Neu5Ac(a2-3)Gal(b1-4)]GlcNAc
# Summary of the method: as §1
# [10] = target: Neu5Ac(a2-3)Gal(b1-3)[Neu5Ac(a2-6)]GalNAc
# Summary of the method: as §1
# [11] = target: Neu5Ac(a2-3)Gal(b1-3)[Neu5Ac(a2-6)]GlcNAc(b1-3)[Fuc(a1-3)[Gal(b1-4)]GlcNAc(b1-6)]Gal(b1-4)Glc
# Summary of the method: as §1
# [12] = target: Neu5Ac(a2-3)Gal(b1-3)]Neu5Ac(a2-3)Gal(b1-4)]GlcNAc
# Summary of the method: as §1
# Neu5Ac(a2-3)Gal(b1-4)Glc = target: Neu5Ac(a2-3)Gal(b1-4)Glc
# Summary of the method: as §1
# [13] = target: Neu5Ac(a2-3)Gal(b1-4)GlcNAc
# Summary of the method: as §1
# [14] = target: Neu5Ac(a2-3)Gal(b1-4)GlcNAc(b1-2)Man
# Summary of the method: as §1
# [15] = target: Neu5Ac(a2-3)Gal(b1-4)GlcNAc(b1-2)Man(a1-3)[GlcNAc(b1-2)Man(b1-4)GlcNAc(b1-2)Man(a1-6)]Man(b1-4)GlcNAc(b1-4)GlcNAc
# Summary of the method: as §1
# [16] = target: Neu5Ac(a2-3)Gal(b1-4)GlcNAc(b1-2)Man(a1-3)[GlcNAc(b1-4)][Neu5Ac(a2-3)Gal(b1-4)GlcNAc(b1-2)Man(a1-6)]Man(b1-4)GlcNAc(b1-4)GlcNAc
# Summary of the method: as §1
# [17] = target: Neu5Ac(a2-3)Gal(b1-4)GlcNAc(b1-2)Man(a1-3)[Neu5Ac(a2-3)Gal(b1-4)GlcNAc(b1-2)Man(a1-6)]Man(b1-4)GlcNAc(b1-4)GlcNAc
# Summary of the method: as §1
# [18] = target: Neu5Ac(a2-3)Gal(b1-4)GlcNAc(b1-2)Man(a1-3)[Neu5Ac(a2-3)Gal(b1-4)GlcNAc(b1-2)Man(a1-6)]Man(b1-4)GlcNAc(b1-4)[Fuc(a1-6)]GlcNAc
# Summary of the method: as §1
# [19] = target: Neu5Ac(a2-3)Gal(b1-4)GlcNAc(b1-2)Man(a1-3)[Neu5Ac(a2-6)Gal(b1-4)GlcNAc(b1-2)Man(a1-6)]Man(b1-4)GlcNAc(b1-4)GlcNAc
# Summary of the method: as §1
# [20] = target: Neu5Ac(a2-3)Gal(b1-4)GlcNAc(b1-2)[Neu5Ac(a2-3)Gal(b1-4)GlcNAc(b1-4)]Man(a1-3)[GlcNAc(b1-4)][Neu5Ac(a2-3)Gal(b1-4)GlcNAc(b1-2)[Neu5Ac(a2-3)Gal(b1-4)GlcNAc(b1-6)]Man(a1-6)]Man(b1-4)GlcNAc(b1-4)GlcNAc
# Summary of the method: as §1
# [21] = target: Neu5Ac(a2-3)Gal(b1-4)GlcNAc(b1-2)[Neu5Ac(a2-3)Gal(b1-4)GlcNAc(b1-4)]Man(a1-3)[GlcNAc(b1-4)][Neu5Ac(a2-3)Gal(b1-4)GlcNAc(b1-4)Man(a1-6)]Man(b1-4)GlcNAc(b1-4)GlcNAc
# Summary of the method: as §1
binder,measurement,setting,value
B1,glycan array binding signal (z-score),[1],-0.378
same,glycan array binding signal (z-score),[2],-0.333
same,glycan array binding signal (z-score),[3],-0.669
same,glycan array binding signal (z-score),[4],-0.204
same,glycan array binding signal (z-score),[5],-0.628
same,glycan array binding signal (z-score),[6],1.14
same,glycan array binding signal (z-score),[7],0.079
same,glycan array binding signal (z-score),[8],0.274
same,glycan array binding signal (z-score),[9],-0.057
same,glycan array binding signal (z-score),[10],0.019
same,glycan array binding signal (z-score),[11],-0.801
same,glycan array binding signal (z-score),[12],-0.322
same,glycan array binding signal (z-score),Neu5Ac(a2-3)Gal(b1-4)Glc,-0.086
same,glycan array binding signal (z-score),[13],-0.362
same,glycan array binding signal (z-score),[14],0.406
same,glycan array binding signal (z-score),[15],-0.439
same,glycan array binding signal (z-score),[16],-0.661
same,glycan array binding signal (z-score),[17],-0.033
same,glycan array binding signal (z-score),[18],-0.07
same,glycan array binding signal (z-score),[19],-0.529
same,glycan array binding signal (z-score),[20],0.141
same,glycan array binding signal (z-score),[21],-0.495

# Two records drawn at random from those above, as already listed:
binder,measurement,setting,value
B1,glycan array binding signal (z-score),[5],-0.628
same,glycan array binding signal (z-score),[20],0.141
